Here are results for 54 sequences from paper PMC7819943, “Rice protein-binding microarrays: a tool to detect cis-acting elements near promoter regions in rice”.

The other results are listed elsewhere or left out.

This assay concerns the target T1, OsSMF1 (Oryza sativa, UniProt Q6ZLB0 1-436).
T1 sequence: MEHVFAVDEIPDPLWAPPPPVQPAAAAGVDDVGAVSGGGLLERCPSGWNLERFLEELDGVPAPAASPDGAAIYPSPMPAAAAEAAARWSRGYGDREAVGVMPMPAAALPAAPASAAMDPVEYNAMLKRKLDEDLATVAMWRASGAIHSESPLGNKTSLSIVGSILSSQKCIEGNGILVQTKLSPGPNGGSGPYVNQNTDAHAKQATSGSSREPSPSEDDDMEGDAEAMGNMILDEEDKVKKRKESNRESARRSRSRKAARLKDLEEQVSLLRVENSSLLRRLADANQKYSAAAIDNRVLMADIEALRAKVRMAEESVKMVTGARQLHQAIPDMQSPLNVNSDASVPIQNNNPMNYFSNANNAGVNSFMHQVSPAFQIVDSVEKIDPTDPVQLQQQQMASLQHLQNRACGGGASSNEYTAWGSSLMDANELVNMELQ
Briefly: protein-binding microarray (RPBM); PBS, 2% BSA, 51.3 ng/ul salmon testes DNA, 50 uM zinc acetate, 200 nM TF, 25 C, 1 h; high values mean tight binding. The following applies: protein: recombinant; tags: N-terminal polyhistidine and DsRed monomer fusion (pET32a); chain copies: 2; label: CyDye5-dUTP incorporated in the synthesized complementary strand; 3' TTTTT single-stranded linker to array surface; dsDNA, one strand shown. A digest of the protocol: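 Transcription factors were made in E. coli BL21-CodonPlus as N-terminal fusions to a polyhistidine tag and DsRed, then purified on Ni–NTA. After primer extension with Cy5-dUTP and blocking with 2% BSA, a custom Agilent array was exposed for 1 h at 25 °C to 200 nM protein in PBS, 2% BSA, salmon testes DNA and 50 µM zinc acetate. Washed arrays were scanned on an Axon 4000B, and the binding signal is per-feature fluorescence intensity in arbitrary units.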
“TTTATACCCTCCTGATCAGTGCATCTAGTGCCGTCATCCTCGGAGTCACCTAGTGCAG”: the binding signal is 4500 fluorescence intensity (a.u.).
As for “GCAGTAGTATGTTGTGCGCAGCTATCTTGCGGCTGCACCGCGGAGTCACCTAGTGCAG”, the figure is 3360 fluorescence intensity (a.u.).
As for “TTTATCGGATGTGACGAGGTAACACAATCGTGGCAACGCGCGGAGTCACCTAGTGCAG”, the figure is 5440 fluorescence intensity (a.u.); as for “CTTCTCCCTTACGTTCCGTTTGCATCATCTGCCTTGCACACGGAGTCACCTAGTGCAG”, 3240 fluorescence intensity (a.u.); as for “ATGTATGATGATGATGAAGAAGATGATGGTATCGAATCAACGGAGTCACCTAGTGCAG”, 30000 fluorescence intensity (a.u.).
Take “ACGCGCCGCGAGCAGGTGACGTCAGCGGCAGCGGCGGCGGCGGAGTCACCTAGTGCAG”: the binding signal was 10300 fluorescence intensity (a.u.).
The same measure for “CTCATTTATTCACTTGCCACATCAGTTTTCATCCTATGTGCGGAGTCACCTAGTGCAG”: 6740 fluorescence intensity (a.u.); for “GCTCACAAAGTTTGCCAAAGGTTGCCACACCTCATGTTAGCGGAGTCACCTAGTGCAG”: 3810 fluorescence intensity (a.u.); for “TTGATGGATTCACCGGATTGTGCATATTTGCATCGTGGGACGGAGTCACCTAGTGCAG”: 3200 fluorescence intensity (a.u.).
The same measure for “CCTCACCATCCAACCTCGCCACCTGACGATTCCCCTAAGCCGGAGTCACCTAGTGCAG”: 3540 fluorescence intensity (a.u.).
The same measure for “ACCTAGAGTCACTGACATGTAGGTCCATACCAGGCCCACACGGAGTCACCTAGTGCAG”: 4000 fluorescence intensity (a.u.); for “AGAAAAGAAAACGCGGCAATAAACAATGACACGGCCTGTCCGGAGTCACCTAGTGCAG”: 4200 fluorescence intensity (a.u.); for “ATGTCGTCGACGACCGCGCGTCGTCGACGCAGAAAGGACCCGGAGTCACCTAGTGCAG”: 3700 fluorescence intensity (a.u.).
Take “ACCGGTAGACGTGACGTGAGCAATGAGCTTTTCGGCCGTCCGGAGTCACCTAGTGCAG”: the binding signal was 7540 fluorescence intensity (a.u.).
For the sequence “CACCACAGCCGCCAACGCCATCATCGGCTGCACCCAGGAACGGAGTCACCTAGTGCAG”, the binding signal is 3290 fluorescence intensity (a.u.).
The same measure for “CCCCTGCAGTGACGCGATCATATGCATGAATGTACGTGCGCGGAGTCACCTAGTGCAG”: 4420 fluorescence intensity (a.u.).
For “AGAGATCAATGTTGCGTAACGACAAATTAGTTGTTGACTTCGGAGTCACCTAGTGCAG”, the binding signal was 4560 fluorescence intensity (a.u.).
As for “GTGCCTCCGCACACGCCATGGCCCAGCAAGGCAGACGATGCGGAGTCACCTAGTGCAG”, the figure is 3960 fluorescence intensity (a.u.); as for “ATTCATCTAAAAGACCGCAGAGATGGGCCGTGGGCCGTGGCGGAGTCACCTAGTGCAG”, 3190 fluorescence intensity (a.u.).
The same measure for “GCCAGCCAGCCACCCACAACACACACATCACACTGGCCGTCGGAGTCACCTAGTGCAG”: 3570 fluorescence intensity (a.u.).
The same measure for “CTCGTACTTTTACCACGCGATACCACTCGTGACGTCACGCCGGAGTCACCTAGTGCAG”: 11700 fluorescence intensity (a.u.); for “CTAATTGAAATCACAAATGCTGAGTTGCTGACATGCACCACGGAGTCACCTAGTGCAG”: 4570 fluorescence intensity (a.u.); for “TCCTGCTGCTCTCCTCCGACCTCCGATCCGCGGCTTGCCACGGAGTCACCTAGTGCAG”: 3280 fluorescence intensity (a.u.).
“GCCGCCCTTCCCTTATGCCGTGTCACCGCCACCGCTGCATCGGAGTCACCTAGTGCAG”: the binding signal was 13300 fluorescence intensity (a.u.).
For “CGACGCGCACCGCACCGCGCAAGCACACGACACCTCGCGGCGGAGTCACCTAGTGCAG”, the binding signal was 3430 fluorescence intensity (a.u.).
With “AAACAGTACCGGCGCGATTTATGACGGTTTCCTCGCGCCGCGGAGTCACCTAGTGCAG”, the binding signal is 3410 fluorescence intensity (a.u.).
Consider “AAATGTTTCACACGTGTATGATCGTTTTGGAACTGTCACTCGGAGTCACCTAGTGCAG”, for which the binding signal is 9010 fluorescence intensity (a.u.).
Regarding “TCGCAGGCTTTAGCTCCCGCACGCGGCACGTCGTCGTCTTCGGAGTCACCTAGTGCAG”, the binding signal is 3200 fluorescence intensity (a.u.).
For the sequence “GGAAGAAGTATCTAGCAAATTACTACTCTCTCTGTCCCTCCGGAGTCACCTAGTGCAG”, the binding signal is 33400 fluorescence intensity (a.u.).
With “TATTAGAGTTGTGTTTGAGAGGAGATGAATCATCAACACACGGAGTCACCTAGTGCAG”, the binding signal was 32200 fluorescence intensity (a.u.).
As for “GGAAAGAGAAGAGAGGAAAGAGAGATGACGTGGACACCTGCGGAGTCACCTAGTGCAG”, the figure is 21100 fluorescence intensity (a.u.).
On to “CGTAAGCGCCACGTTAATGCCACGTGGGGCGAAGACCTAGCGGAGTCACCTAGTGCAG”, for which the binding signal was 15100 fluorescence intensity (a.u.).
As for “ACCTGTCATACACACATAACTTTTCAGTCACATCATCTTCCGGAGTCACCTAGTGCAG”, the figure is 3330 fluorescence intensity (a.u.); as for “AACATGACAAGTGCATGTGTCATGACAAACTAGGAACTACCGGAGTCACCTAGTGCAG”, 5180 fluorescence intensity (a.u.); as for “CCCTTCGGCCCATCTCCCTCCTTGGCCCATGTCGGCCCAGCGGAGTCACCTAGTGCAG”, 21800 fluorescence intensity (a.u.).
The same measure for “ACTTAAGGTAGCTAAATTATTCGTCATCAAGACCTTCCTACGGAGTCACCTAGTGCAG”: 5690 fluorescence intensity (a.u.); for “CTCCAACTGTCCAACCCCACACAGGTCAGCACAAGGCATGCGGAGTCACCTAGTGCAG”: 4050 fluorescence intensity (a.u.).
The same measure for “ATACATTGATTAATCAGCCAGCCAGCCAGCCAGCCACTGACGGAGTCACCTAGTGCAG”: 3440 fluorescence intensity (a.u.); for “CGCCCACTTGACTATTTCGTGGACCCTTCCTGTCTTGTCCCGGAGTCACCTAGTGCAG”: 3280 fluorescence intensity (a.u.); for “CGTGTCGTCGTGTCGCCCCACTCGCCCGTAATAAGTCCGTCGGAGTCACCTAGTGCAG”: 3850 fluorescence intensity (a.u.).
Regarding “TTGGCCTCTTGTATACTACCATTTGCAACAATAAAGCTTTCGGAGTCACCTAGTGCAG”, the binding signal is 4480 fluorescence intensity (a.u.).
As to “TCCCACTAGTACGTCGGCGCTACCGTGGCATGACACGTTACGGAGTCACCTAGTGCAG”, the binding signal was 8270 fluorescence intensity (a.u.).
As for “CAGAGAAGGTTCGAGACGCGTGGAGCAGCTTCGTCTCCGCCGGAGTCACCTAGTGCAG”, the figure is 4020 fluorescence intensity (a.u.); as for “TAGTGGGGTGGCTTTGTCTGACATGGCAATTTGACCCAAGCGGAGTCACCTAGTGCAG”, 8430 fluorescence intensity (a.u.); as for “TCGTCCCGCTCGGGCGACGTGGGCACTCTCGTGTCGTCGCCGGAGTCACCTAGTGCAG”, 3790 fluorescence intensity (a.u.).
With “TTAATTATTTTGCTGACATGATTTGTTTTCATTTCGTTGACGGAGTCACCTAGTGCAG”, the binding signal is 3290 fluorescence intensity (a.u.).
Turning to “CAGTCCTCACACGTTCTCTTCCTCTCTCTCTCTCTCACTCCGGAGTCACCTAGTGCAG”, the binding signal was 3470 fluorescence intensity (a.u.).
Consider “GGTTCTGGATAGCCATACAGCCAGCTTGTTCTGATAGCAACGGAGTCACCTAGTGCAG”, for which the binding signal is 3270 fluorescence intensity (a.u.).
For the sequence “CCTCAATCCCCTCCTGTTGCATGCTAGCTGCTGTACACCACGGAGTCACCTAGTGCAG”, the binding signal was 3160 fluorescence intensity (a.u.).
The same measure for “AGCGCCACCTCGACGGCGCCCAGCACCACCGCGCCCGCGCCGGAGTCACCTAGTGCAG”: 4140 fluorescence intensity (a.u.); for “GACTATCGTATCATGGAACGATGTGTCACTGTCACCAAATCGGAGTCACCTAGTGCAG”: 6470 fluorescence intensity (a.u.); for “CAGTGGAGGGTTGTGATTGGTTATGAAGAGAATGTTGGTGCGGAGTCACCTAGTGCAG”: 3220 fluorescence intensity (a.u.).
As for “ATACTATTAATACCTGATCCCACCTGTCATACACACGTTACGGAGTCACCTAGTGCAG”, the binding signal was 4370 fluorescence intensity (a.u.).
Take “CAAAACACACGTCAGTTTATAATCATAGTTTCGGCCTACTCGGAGTCACCTAGTGCAG”: the binding signal was 10100 fluorescence intensity (a.u.).
